Test results taken from paper PMC6115016.
Results are given in words; binding and its absence hold for the method and conditions named. Binding seen in cells or lysates may run through a third protein. Binding can be weak; no strength is given.

Key:
[1] = target: GST-tagged fragment of human SCRIB containing the PDZ domain (human); test: pull-down; GST-tagged SCRIB fragments held on glutathione sepharose beads, incubated with RWPE-1 cell lysate overnight at 4°C, immunoblot; only the target purified
[2] = target: E-cadherin (human (endogenous in RWPE-1)); test: co-IP; endogenous proteins in RWPE-1 cell lysate (50mM Tris-HCl, 150mM NaCl, 1mM EDTA, 0.25% TritonX-100, pH 7.4), 1 ug primary antibody 6 h at 4°C, Protein G-Agarose, immunoblot; also compared in E-cadherin knockdown and SCRIB knockdown cells

B1: leucine-glycine-asparagine repeat protein (LGN) (protein, UniProt P81274 1-684)
chain: MEENLISMREDHSFHVRYRMEASCLELALEGERLCKSGDCRAGVSFFEAAVQVGTEDLKTLSAIYSQLGNAYFYLHDYAKALEYHHHDLTLARTIGDQLGEAKASGNLGNTLKVLGNFDEAIVCCQRHLDISRELNDKVGEARALYNLGNVYHAKGKSFGCPGPQDVGEFPEEVRDALQAAVDFYEENLSLVTALGDRAAQGRAFGNLGNTHYLLGNFRDAVIAHEQRLLIAKEFGDKAAERRAYSNLGNAYIFLGEFETASEYYKKTLLLARQLKDRAVEAQSCYSLGNTYTLLQDYEKAIDYHLKHLAIAQELNDRIGEGRACWSLGNAYTALGNHDQAMHFAEKHLEISREVGDKSGELTARLNLSDLQMVLGLSYSTNNSIMSENTEIDSSLNGVRPKLGRRHSMENMELMKLTPEKVQNWNSEILAKQKPLIAKPSAKLLFVNRLKGKKYKTNSSTKVLQDASNSIDHRIPNSQRKISADTIGDEGFFDLLSRFQSNRMDDQRCCLQEKNCHTASTTTSSTPPKMMLKTSSVPVVSPNTDEFLDLLASSQSRRLDDQRASFSNLPGLRLTQNSQSVLSHLMTNDNKEADEDFFDILVKCQGSRLDDQRCAPPPATTKGPTVPDEDFFSLILRSQGKRMDEQRVLLQRDQNRDTDFGLKDFLQNNALLEFKNSGKKSADH
binding [1]: binds | binding [2]: binds
